Results published in article PMC11540904.
These are yes or no findings as the source states them, for the method shown. Some binding calls cover weakened binding; strength is not graded here.

The chains behind the UniProt entries cited, without tags or fusion partners.
UniProt P08413: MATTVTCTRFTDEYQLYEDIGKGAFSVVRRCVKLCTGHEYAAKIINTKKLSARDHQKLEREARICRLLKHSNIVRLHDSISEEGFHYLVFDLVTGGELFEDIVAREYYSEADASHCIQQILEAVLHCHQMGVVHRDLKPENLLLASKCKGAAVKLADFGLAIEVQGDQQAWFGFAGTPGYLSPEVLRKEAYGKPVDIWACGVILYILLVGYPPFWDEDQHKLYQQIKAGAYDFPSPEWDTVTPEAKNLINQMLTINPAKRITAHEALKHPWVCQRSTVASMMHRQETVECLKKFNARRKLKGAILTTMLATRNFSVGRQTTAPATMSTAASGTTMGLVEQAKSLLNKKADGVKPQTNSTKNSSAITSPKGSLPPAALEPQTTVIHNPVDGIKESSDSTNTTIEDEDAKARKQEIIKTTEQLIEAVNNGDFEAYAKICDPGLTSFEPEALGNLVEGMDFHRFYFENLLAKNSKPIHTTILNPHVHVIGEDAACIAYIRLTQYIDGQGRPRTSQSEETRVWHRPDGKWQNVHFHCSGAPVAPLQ

Molecular target: Green Camuiβ (UniProt P08413)
Experiment: SEC; fluorescence-coupled SEC (FSEC): supernatant of sonicated transfected HEK293S GnTI- cells loaded directly onto Superose-6 in TBS (20 mM Tris-HCl pH 8.0, 200 mM NaCl), 0.4 ml/min; EGFP fluorescence 475/507 nm; approximate oligomeric state from retention time

binding: binds
Substance: Green Camuiβ (from UniProt P08413 1-542) (enzyme)
